For 4 substances, binding results are on record in paper PMC12439347.

The chains behind the UniProt entries cited, without tags or fusion partners.
UniProt Q9NQT8: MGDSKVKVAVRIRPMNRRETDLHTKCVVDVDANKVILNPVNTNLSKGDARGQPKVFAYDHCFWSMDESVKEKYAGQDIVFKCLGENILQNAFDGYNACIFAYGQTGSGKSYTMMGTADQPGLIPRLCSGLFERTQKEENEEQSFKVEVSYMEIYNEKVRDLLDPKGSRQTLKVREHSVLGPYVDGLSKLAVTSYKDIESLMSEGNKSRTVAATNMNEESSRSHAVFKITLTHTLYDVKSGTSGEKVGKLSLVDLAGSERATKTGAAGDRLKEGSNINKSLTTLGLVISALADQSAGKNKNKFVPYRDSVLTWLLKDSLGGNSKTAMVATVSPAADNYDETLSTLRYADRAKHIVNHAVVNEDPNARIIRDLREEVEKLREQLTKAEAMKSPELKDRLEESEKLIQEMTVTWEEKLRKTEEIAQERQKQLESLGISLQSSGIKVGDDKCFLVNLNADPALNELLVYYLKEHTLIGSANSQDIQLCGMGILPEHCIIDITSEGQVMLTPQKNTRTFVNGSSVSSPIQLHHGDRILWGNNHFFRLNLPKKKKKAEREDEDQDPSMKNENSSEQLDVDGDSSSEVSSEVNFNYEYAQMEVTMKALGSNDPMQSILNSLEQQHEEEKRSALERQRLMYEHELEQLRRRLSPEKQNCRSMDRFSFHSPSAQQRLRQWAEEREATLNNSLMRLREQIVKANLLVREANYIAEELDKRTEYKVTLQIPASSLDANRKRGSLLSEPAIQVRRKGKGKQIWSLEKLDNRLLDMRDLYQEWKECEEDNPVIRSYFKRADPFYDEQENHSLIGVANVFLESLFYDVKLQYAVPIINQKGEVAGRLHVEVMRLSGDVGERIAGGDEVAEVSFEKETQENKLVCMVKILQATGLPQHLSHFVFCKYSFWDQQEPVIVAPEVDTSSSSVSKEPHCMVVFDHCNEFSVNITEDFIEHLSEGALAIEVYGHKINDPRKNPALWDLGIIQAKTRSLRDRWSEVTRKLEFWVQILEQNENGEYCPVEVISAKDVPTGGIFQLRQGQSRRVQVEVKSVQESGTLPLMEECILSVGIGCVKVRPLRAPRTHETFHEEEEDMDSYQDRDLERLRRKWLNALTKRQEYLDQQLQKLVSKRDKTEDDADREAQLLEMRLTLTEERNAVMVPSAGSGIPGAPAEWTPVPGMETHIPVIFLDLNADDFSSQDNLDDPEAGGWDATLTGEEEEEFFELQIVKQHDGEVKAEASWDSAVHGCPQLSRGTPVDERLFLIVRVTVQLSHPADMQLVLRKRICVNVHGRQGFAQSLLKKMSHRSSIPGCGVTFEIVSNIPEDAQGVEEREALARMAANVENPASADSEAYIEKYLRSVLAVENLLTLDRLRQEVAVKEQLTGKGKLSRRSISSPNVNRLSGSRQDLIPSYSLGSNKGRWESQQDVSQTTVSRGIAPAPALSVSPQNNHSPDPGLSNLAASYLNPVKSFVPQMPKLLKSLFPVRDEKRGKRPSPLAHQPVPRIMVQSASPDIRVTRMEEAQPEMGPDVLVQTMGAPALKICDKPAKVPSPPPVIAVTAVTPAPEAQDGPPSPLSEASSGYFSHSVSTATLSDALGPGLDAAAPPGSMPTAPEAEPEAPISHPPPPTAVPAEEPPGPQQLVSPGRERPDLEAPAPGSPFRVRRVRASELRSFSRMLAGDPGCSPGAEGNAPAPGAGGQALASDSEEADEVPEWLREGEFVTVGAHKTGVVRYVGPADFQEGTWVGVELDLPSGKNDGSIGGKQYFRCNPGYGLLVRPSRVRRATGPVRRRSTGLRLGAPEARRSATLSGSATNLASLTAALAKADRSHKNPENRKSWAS
UniProt E9Q4K7: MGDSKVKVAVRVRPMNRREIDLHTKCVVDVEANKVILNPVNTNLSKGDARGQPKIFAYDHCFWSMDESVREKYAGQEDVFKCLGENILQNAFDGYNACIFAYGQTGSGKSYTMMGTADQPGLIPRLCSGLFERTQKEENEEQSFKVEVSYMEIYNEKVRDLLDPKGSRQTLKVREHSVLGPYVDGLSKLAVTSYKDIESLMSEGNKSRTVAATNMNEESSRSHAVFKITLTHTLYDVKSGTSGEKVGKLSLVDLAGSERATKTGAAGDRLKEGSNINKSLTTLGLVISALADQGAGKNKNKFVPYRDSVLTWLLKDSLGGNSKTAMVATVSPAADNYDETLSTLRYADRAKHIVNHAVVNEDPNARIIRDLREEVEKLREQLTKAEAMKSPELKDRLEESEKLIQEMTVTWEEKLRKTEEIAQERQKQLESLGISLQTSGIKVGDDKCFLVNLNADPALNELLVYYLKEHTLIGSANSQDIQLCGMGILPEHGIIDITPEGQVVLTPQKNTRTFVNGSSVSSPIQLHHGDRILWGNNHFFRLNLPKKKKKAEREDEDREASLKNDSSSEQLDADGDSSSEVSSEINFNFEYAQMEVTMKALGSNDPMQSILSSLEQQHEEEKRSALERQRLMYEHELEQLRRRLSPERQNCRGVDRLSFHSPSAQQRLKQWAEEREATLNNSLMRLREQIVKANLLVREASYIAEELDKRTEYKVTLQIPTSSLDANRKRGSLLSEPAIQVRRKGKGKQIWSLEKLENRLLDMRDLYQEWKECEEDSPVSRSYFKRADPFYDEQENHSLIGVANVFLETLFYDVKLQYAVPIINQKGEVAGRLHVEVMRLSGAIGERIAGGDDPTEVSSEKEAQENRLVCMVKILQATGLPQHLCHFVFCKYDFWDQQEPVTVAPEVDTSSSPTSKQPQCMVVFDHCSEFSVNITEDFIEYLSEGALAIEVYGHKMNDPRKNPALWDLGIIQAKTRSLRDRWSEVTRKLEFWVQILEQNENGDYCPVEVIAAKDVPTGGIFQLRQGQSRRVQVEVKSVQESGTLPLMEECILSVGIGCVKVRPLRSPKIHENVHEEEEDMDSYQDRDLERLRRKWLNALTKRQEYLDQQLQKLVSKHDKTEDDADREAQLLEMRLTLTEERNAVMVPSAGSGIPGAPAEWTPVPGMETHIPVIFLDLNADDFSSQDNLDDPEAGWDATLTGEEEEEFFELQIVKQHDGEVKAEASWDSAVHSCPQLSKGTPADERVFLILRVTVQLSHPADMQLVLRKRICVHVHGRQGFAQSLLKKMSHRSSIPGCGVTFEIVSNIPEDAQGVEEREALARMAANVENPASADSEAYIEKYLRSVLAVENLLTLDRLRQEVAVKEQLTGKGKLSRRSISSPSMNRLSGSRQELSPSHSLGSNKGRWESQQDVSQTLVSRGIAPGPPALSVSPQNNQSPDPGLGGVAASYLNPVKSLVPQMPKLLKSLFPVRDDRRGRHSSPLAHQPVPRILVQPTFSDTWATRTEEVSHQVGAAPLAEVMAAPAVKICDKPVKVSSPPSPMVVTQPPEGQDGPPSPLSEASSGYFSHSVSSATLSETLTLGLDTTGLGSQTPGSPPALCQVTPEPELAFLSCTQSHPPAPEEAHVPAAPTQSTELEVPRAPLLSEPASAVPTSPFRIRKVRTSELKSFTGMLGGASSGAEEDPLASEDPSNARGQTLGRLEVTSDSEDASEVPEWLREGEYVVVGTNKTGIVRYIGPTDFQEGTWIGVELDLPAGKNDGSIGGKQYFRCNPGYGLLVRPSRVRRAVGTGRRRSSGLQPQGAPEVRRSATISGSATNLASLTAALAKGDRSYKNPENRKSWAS
UniProt P70398: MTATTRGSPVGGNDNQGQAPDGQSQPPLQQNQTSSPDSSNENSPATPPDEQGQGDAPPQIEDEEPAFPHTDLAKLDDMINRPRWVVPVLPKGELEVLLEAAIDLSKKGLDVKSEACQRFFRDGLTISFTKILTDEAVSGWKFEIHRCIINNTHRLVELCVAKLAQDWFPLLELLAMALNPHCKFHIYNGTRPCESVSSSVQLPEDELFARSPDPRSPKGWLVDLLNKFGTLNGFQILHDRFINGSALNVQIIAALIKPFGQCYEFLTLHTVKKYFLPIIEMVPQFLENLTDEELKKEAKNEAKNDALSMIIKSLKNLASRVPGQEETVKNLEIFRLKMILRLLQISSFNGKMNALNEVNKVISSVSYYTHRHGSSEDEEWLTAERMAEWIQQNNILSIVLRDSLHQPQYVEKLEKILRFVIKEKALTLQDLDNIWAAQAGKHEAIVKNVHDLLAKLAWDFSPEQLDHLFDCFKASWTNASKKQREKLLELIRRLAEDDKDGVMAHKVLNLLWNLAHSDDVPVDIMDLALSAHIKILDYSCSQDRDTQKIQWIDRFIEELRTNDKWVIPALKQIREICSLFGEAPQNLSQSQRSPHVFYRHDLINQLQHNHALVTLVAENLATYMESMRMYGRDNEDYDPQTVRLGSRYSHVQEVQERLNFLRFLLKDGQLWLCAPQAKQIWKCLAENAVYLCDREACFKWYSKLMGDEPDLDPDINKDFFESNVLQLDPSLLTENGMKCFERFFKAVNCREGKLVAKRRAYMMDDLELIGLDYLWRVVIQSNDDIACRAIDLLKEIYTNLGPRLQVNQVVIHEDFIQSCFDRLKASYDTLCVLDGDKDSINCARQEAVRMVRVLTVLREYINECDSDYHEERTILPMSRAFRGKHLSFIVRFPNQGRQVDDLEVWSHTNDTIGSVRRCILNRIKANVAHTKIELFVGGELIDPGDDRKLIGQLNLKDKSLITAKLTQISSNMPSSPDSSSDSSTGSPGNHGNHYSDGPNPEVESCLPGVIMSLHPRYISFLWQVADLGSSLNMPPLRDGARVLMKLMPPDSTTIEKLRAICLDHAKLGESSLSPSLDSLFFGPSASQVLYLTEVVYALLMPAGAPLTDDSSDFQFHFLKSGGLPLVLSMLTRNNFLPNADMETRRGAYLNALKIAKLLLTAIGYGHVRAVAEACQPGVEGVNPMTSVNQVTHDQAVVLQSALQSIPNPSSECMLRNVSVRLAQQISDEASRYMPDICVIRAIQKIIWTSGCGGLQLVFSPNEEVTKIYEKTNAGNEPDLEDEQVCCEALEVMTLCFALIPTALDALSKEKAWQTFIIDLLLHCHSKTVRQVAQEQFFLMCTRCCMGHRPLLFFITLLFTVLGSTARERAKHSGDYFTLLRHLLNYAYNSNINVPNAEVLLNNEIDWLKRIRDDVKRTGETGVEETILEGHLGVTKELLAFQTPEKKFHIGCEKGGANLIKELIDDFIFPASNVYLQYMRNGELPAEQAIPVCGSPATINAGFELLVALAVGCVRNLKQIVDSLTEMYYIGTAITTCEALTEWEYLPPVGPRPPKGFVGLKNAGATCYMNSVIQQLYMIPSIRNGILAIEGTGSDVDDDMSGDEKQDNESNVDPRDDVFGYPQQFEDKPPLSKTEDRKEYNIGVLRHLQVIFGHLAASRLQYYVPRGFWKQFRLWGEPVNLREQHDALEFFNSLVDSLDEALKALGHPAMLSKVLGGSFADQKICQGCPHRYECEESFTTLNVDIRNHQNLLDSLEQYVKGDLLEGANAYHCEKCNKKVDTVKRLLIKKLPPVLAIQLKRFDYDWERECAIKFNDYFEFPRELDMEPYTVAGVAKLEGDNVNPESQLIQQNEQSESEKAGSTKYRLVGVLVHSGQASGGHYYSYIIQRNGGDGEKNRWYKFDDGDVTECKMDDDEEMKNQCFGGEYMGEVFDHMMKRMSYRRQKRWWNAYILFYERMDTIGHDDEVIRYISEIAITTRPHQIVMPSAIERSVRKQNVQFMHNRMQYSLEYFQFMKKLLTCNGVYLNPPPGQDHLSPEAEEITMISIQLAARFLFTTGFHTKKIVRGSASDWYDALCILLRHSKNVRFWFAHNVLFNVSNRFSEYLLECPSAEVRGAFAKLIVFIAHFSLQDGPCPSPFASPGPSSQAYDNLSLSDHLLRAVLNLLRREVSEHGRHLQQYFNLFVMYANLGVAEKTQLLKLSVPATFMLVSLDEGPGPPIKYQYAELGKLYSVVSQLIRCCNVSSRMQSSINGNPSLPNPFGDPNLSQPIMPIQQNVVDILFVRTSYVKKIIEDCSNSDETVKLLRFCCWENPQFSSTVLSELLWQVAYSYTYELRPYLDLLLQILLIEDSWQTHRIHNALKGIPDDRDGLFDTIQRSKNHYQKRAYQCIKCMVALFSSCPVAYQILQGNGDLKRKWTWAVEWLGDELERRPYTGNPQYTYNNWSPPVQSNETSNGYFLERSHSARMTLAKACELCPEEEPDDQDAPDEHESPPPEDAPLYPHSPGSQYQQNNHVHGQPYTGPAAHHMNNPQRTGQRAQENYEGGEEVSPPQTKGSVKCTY

Results are given in words; binding and its absence hold for the method and conditions named. For some of these results: In cells and extracts the contact can be indirect. Some results given as binding are weak or reduced against the parent protein; the word gives no strength.

In assay [1] the target is Recombinant KIF13B used in the in vitro GST pull-down (UniProt Q9NQT8). Kind of assay: pull-down; in vitro GST pull-down using recombinant proteins; both purified.
The target in assay [2] is Kinesin family member 13b (KIF13B), endogenous in primary mouse BMDMs (mouse (endogenous in primary BMDMs)) (UniProt E9Q4K7). Kind of assay: co-IP; endogenous co-IP in primary BMDMs; bait not told in the text shown.
For assay [3], the target named is Full-length KIF13B overexpressed in THP1-derived macrophages (human) (UniProt Q9NQT8). Put plainly: co-IP; semi-exogenous co-IP in THP1-derived macrophages overexpressing full-length KIF13B or its functional domains (Motor, FHA, RLIP).

Turning to “Recombinant USP9X used in the in vitro GST pull-down (from UniProt Q93008 1-2554) (enzyme)”, the binding entry in assay [1] is “binds”.
Take “Transcription factor EB (TFEB), endogenous in primary mouse BMDMs (from UniProt Q9R210 1-475)”: the binding entry in assay [2] is on record as “binds”.
Regarding “USP9X, endogenous in THP1-derived macrophages (from UniProt Q93008 1-2554) (enzyme)”, the binding entry in assay [3] is “binds”.
For “Ubiquitin specific peptidase 9 x-linked (USP9X), endogenous in primary mouse BMDMs (from UniProt P70398 1-2559) (enzyme)”, the binding entry in assay [2] was “binds”.
